Values of other authors, collected in US20250270619A1, “COMPOSITIONS, KITS AND METHODS FOR DIRECT AMPLIFICATION FROM CRUDE BIOLOGICAL SAMPLES” (LIFE TECHNOLOGIES CORPORATION, priority 2021, published 2025).
At least one structure is not confirmed: it was looked up by name or label, or the drawing left a doubt.

Details: cited from earlier work

SMILES | Critical Micelle Concentration (CMC)
CCCCCCCCCCCC[N+](C)(C)[O-] [LDAO, N,N Dimethydodecylamine-N-oxide] | 0.034% w/v %
CCCCCCCCCCCCCC[N+](C)(C)CCCS(=O)(=O)[O-] [Zwittergent 3-14, n-Tetradecyl-N,N-dimethyl-3-ammonio-1-propanesulfonate] | 0.006% w/v %
